# The list shows a part of the results.
# B1: MtEccB1 (Mycobacterium tuberculosis H37Rv), O69734 (protein)
# chain: MGLRLTTKVQVSGWRFLLRRLEHAIVRRDTRMFDDPLQFYSRSIALGIVVAVLILAGAALLAYFKPQGKLGGTSLFTDRATNQLYVLLSGQLHPVYNLTSARLVLGNPANPATVKSSELSKLPMGQTVGIPGAPYATPVSAGSTSIWTLCDTVARADSTSPVVQTAVIAMPLEIDASIDPLQSHEAVLVSYQGETWIVTTKGRHAIDLTDRALTSSMGIPVTARPTPISEGMFNALPDMGPWQLPPIPAAGAPNSLGLPDDLVIGSVFQIHTDKGPQYYVVLPDGIAQVNATTAAALRATQAHGLVAPPAMVPSLVVRIAERVYPSPLPDEPLKIVSRPQDPALCWSWQRSAGDQSPQSTVLSGRHLPISPSAMNMGIKQIHGTATVYLDGGKFVALQSPDPRYTESMYYIDPQGVRYGVPNAETAKSLGLSSPQNAPWEIVRLLVDGPVLSKDAALLEHDTLPADPSPRKVPAGASGAP
# Experiments:
# Test in all cases: glycan array binding signal (z-score within array); higher = stronger binding
# Conditions in all cases: glycan notation: IUPAC condensed, linker removed
# Gal3S4S(b1-4)GlcNAc = biological target: Gal3S4S(b1-4)GlcNAc
# How it was run: (§1)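 From the Consortium for Functional Glycomics database, 3228 arrays were curated, keeping only those whose protein sequence was available. Binding is given as a within-array Z-score averaged across arrays sharing a protein sequence and across linkers. Negative Z-scores can be read as non-binding.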
# Gal3S6S(b1-4)GlcNAc = biological target: Gal3S6S(b1-4)GlcNAc
# How it was run: as §1
# Gal3S6S(b1-4)GlcNAc6S = biological target: Gal3S6S(b1-4)GlcNAc6S
# How it was run: as §1
# Gal4S(b1-4)GlcNAc = biological target: Gal4S(b1-4)GlcNAc
# How it was run: as §1
# Gal4S6S(b1-4)GlcNAc = biological target: Gal4S6S(b1-4)GlcNAc
# How it was run: as §1
# Gal6P(b1-4)GlcNAc = biological target: Gal6P(b1-4)GlcNAc
# How it was run: as §1
# Gal6S(b1-3)GlcNAc = biological target: Gal6S(b1-3)GlcNAc
# How it was run: as §1
# Gal6S(b1-3)GlcNAc6S = biological target: Gal6S(b1-3)GlcNAc6S
# How it was run: as §1
# Gal6S(b1-4)Glc = biological target: Gal6S(b1-4)Glc
# How it was run: as §1
# Gal6S(b1-4)Glc6S = biological target: Gal6S(b1-4)Glc6S
# How it was run: as §1
# Gal6S(b1-4)GlcNAc = biological target: Gal6S(b1-4)GlcNAc
# How it was run: as §1
# Gal6S(b1-4)GlcNAc6S = biological target: Gal6S(b1-4)GlcNAc6S
# How it was run: as §1
# GalNAc(a1-3)Gal = biological target: GalNAc(a1-3)Gal
# How it was run: as §1
# GalNAc(a1-3)GalNAc = biological target: GalNAc(a1-3)GalNAc
# How it was run: as §1
# [1] = biological target: GalNAc(a1-3)GalNAc(b1-3)Gal(a1-4)Gal(b1-4)Glc
# How it was run: as §1
# [2] = biological target: GalNAc(a1-3)GalNAc(b1-3)Gal(a1-4)Gal(b1-4)GlcNAc
# How it was run: as §1
# GalNAc(b1-3)Gal = biological target: GalNAc(b1-3)Gal
# How it was run: as §1
# [3] = biological target: GalNAc(b1-3)Gal(a1-4)Gal(b1-4)GlcNAc
# How it was run: as §1
# [4] = biological target: GalNAc(b1-3)Gal(a1-4)Gal(b1-4)GlcNAc(b1-3)Gal(b1-4)Glc
# How it was run: as §1
# [5] = biological target: GalNAc(b1-3)Gal(a1-6)Gal(b1-4)Glc
# How it was run: as §1
# GalNAc(b1-3)GalNAc = biological target: GalNAc(b1-3)GalNAc
# How it was run: as §1
# GalNAc(b1-3)GlcNAc = biological target: GalNAc(b1-3)GlcNAc
# How it was run: as §1
# GalNAc(b1-4)Gal(b1-4)Glc = biological target: GalNAc(b1-4)Gal(b1-4)Glc
# How it was run: as §1
# GalNAc(b1-4)GlcNAc = biological target: GalNAc(b1-4)GlcNAc
# How it was run: as §1
# [6] = biological target: GalNAc(b1-4)GlcNAc(b1-2)Man
# How it was run: as §1
# [7] = biological target: GalNAc(b1-4)GlcNAc(b1-2)Man(a1-3)[GalNAc(b1-4)GlcNAc(b1-2)Man(a1-6)]Man(b1-4)GlcNAc(b1-4)GlcNAc
# How it was run: as §1
# [8] = biological target: GalNAc(b1-4)GlcNAc(b1-3)GalNAc(b1-4)GlcNAc
# How it was run: as §1
# GalNAc(b1-4)GlcNAc6S = biological target: GalNAc(b1-4)GlcNAc6S
# How it was run: as §1
# GalNAc(b1-6)GalNAc = biological target: GalNAc(b1-6)GalNAc
# How it was run: as §1
# GalNAc3S(b1-4)GlcNAc = biological target: GalNAc3S(b1-4)GlcNAc
# How it was run: as §1
# GalNAc3S(b1-4)GlcNAc3S = biological target: GalNAc3S(b1-4)GlcNAc3S
# How it was run: as §1
# [9] = biological target: GalNAc3S(b1-4)[Fuc(a1-3)]GlcNAc
# How it was run: as §1
# GalNAc4S6S(b1-4)GlcNAc = biological target: GalNAc4S6S(b1-4)GlcNAc
# How it was run: as §1
# GalNAc6S(b1-4)GlcNAc = biological target: GalNAc6S(b1-4)GlcNAc
# How it was run: as §1
# Glc(a1-4)Glc = biological target: Glc(a1-4)Glc
# How it was run: as §1
# [10] = biological target: Glc(a1-4)Glc(a1-4)Glc(a1-4)Glc
# How it was run: as §1
# Glc(a1-6)Glc(a1-6)Glc = biological target: Glc(a1-6)Glc(a1-6)Glc
# How it was run: as §1
# [11] = biological target: Glc(a1-6)Glc(a1-6)Glc(a1-6)Glc
# How it was run: as §1
binder,measurement,setting,value
B1,glycan array binding signal (z-score),Gal3S4S(b1-4)GlcNAc,-0.042
same,glycan array binding signal (z-score),Gal3S6S(b1-4)GlcNAc,0.192
same,glycan array binding signal (z-score),Gal3S6S(b1-4)GlcNAc6S,3.9
same,glycan array binding signal (z-score),Gal4S(b1-4)GlcNAc,-0.41
same,glycan array binding signal (z-score),Gal4S6S(b1-4)GlcNAc,3.03
same,glycan array binding signal (z-score),Gal6P(b1-4)GlcNAc,-0.972
same,glycan array binding signal (z-score),Gal6S(b1-3)GlcNAc,1.01
same,glycan array binding signal (z-score),Gal6S(b1-3)GlcNAc6S,0.081
same,glycan array binding signal (z-score),Gal6S(b1-4)Glc,0.586
same,glycan array binding signal (z-score),Gal6S(b1-4)Glc6S,-0.71
same,glycan array binding signal (z-score),Gal6S(b1-4)GlcNAc,0.062
same,glycan array binding signal (z-score),Gal6S(b1-4)GlcNAc6S,-0.899
same,glycan array binding signal (z-score),GalNAc(a1-3)Gal,-0.394
same,glycan array binding signal (z-score),GalNAc(a1-3)GalNAc,-0.719
same,glycan array binding signal (z-score),[1],-0.822
same,glycan array binding signal (z-score),[2],-2.02
same,glycan array binding signal (z-score),GalNAc(b1-3)Gal,-1.19
same,glycan array binding signal (z-score),[3],0.639
same,glycan array binding signal (z-score),[4],0.931
same,glycan array binding signal (z-score),[5],-0.145
same,glycan array binding signal (z-score),GalNAc(b1-3)GalNAc,-0.908
same,glycan array binding signal (z-score),GalNAc(b1-3)GlcNAc,-1.09
same,glycan array binding signal (z-score),GalNAc(b1-4)Gal(b1-4)Glc,-0.899
same,glycan array binding signal (z-score),GalNAc(b1-4)GlcNAc,1.29
same,glycan array binding signal (z-score),[6],0.753
same,glycan array binding signal (z-score),[7],-1.04
same,glycan array binding signal (z-score),[8],-0.216
same,glycan array binding signal (z-score),GalNAc(b1-4)GlcNAc6S,-0.408
same,glycan array binding signal (z-score),GalNAc(b1-6)GalNAc,-1.22
same,glycan array binding signal (z-score),GalNAc3S(b1-4)GlcNAc,-0.943
same,glycan array binding signal (z-score),GalNAc3S(b1-4)GlcNAc3S,1.69
same,glycan array binding signal (z-score),[9],1.06
same,glycan array binding signal (z-score),GalNAc4S6S(b1-4)GlcNAc,0.026
same,glycan array binding signal (z-score),GalNAc6S(b1-4)GlcNAc,-1.3
same,glycan array binding signal (z-score),Glc(a1-4)Glc,-0.595
same,glycan array binding signal (z-score),[10],0.166
same,glycan array binding signal (z-score),Glc(a1-6)Glc(a1-6)Glc,-0.424
same,glycan array binding signal (z-score),[11],0.91

# Looked up one by one from the entries so far:
binder,measurement,setting,value
B1,glycan array binding signal (z-score),GalNAc(a1-3)Gal,-0.394
same,glycan array binding signal (z-score),Gal6S(b1-3)GlcNAc6S,0.081
same,glycan array binding signal (z-score),Gal4S6S(b1-4)GlcNAc,3.03

# Source: the supplement of paper PMC8728848
